From PMC11220018
These are yes or no findings as the source states them, for the method shown. In cells and extracts the contact can be indirect. Some binding calls cover weakened binding; strength is not graded here.

Sequences of proteins named here, by UniProt entry; tags and fusion partners are left off. A change or cut given only in a name is not applied to a line headed by its entry.
UniProt P05556: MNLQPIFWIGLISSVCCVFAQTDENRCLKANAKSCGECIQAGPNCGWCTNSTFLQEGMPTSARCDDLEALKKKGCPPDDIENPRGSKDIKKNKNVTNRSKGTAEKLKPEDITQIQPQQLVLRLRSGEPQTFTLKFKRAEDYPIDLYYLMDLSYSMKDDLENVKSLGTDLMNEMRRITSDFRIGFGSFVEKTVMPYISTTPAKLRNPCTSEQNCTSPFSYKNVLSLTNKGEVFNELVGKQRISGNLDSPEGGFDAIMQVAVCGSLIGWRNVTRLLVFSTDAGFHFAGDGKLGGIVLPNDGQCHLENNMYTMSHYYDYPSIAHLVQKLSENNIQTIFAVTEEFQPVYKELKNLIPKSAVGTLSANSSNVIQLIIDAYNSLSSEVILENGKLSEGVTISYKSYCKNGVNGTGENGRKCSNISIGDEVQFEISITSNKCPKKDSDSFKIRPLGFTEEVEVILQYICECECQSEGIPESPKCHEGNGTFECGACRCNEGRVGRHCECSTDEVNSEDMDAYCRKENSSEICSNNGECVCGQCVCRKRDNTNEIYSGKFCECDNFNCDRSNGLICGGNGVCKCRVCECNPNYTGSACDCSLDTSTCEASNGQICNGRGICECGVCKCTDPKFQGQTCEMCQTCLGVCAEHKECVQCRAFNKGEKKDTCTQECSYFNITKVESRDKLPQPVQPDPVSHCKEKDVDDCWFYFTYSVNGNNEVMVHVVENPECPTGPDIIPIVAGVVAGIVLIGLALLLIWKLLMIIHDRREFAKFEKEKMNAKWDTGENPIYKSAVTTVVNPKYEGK

Tests used:
[1] = molecular target: NRP1 (human (endogenous in LX-2)) (UniProt O14786); test: co-IP; LX-2 cells treated with supernatant (CM) of OE-Sema3C Hep3B cells; lysate, rProtein A/G magnetic beads, western blot
NRP1 = NRP1 (UniProt O14786); test: co-IP; Huh7 cell lysates; anti-Flag or anti-HA or IgG control overnight at 4 °C, rProtein A/G MagPoly beads, western blot; also after knock-down of NRP1 or of ITGB1
Semaphorin 3C = molecular target: T1, Semaphorin 3C (UniProt Q99985); test: as above
T1 sequence: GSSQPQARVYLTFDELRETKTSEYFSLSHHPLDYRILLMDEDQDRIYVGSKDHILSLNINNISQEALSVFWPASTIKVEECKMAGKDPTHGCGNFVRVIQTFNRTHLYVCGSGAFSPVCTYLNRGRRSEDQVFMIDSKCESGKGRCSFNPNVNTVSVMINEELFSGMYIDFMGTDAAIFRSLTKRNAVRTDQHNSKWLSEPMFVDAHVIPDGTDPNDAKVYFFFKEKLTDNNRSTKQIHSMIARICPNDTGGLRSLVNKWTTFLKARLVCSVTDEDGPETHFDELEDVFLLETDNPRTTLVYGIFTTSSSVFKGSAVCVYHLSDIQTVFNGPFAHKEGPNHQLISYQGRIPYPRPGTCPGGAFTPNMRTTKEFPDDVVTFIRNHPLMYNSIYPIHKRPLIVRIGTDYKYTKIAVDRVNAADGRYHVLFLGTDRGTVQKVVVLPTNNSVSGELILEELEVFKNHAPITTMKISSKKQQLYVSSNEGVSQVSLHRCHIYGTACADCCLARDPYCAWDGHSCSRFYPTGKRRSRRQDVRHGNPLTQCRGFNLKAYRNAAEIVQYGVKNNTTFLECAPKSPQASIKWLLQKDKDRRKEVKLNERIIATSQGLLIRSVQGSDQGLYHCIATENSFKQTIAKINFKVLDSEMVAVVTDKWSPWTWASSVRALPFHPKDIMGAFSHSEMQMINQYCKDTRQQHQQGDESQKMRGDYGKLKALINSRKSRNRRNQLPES

In the case of “ITGB1 (from UniProt P05556 21-798) (receptor)”, the binding [1] is reported as “binds” and the binding (NRP1) is reported as “binds”.

For “NRP1 (from UniProt O14786 22-923) (receptor)”, the binding (Semaphorin 3C) was “binds”.
